PubChem BioAssay AID1224830 – NIAID, 2016
The deposit covers about 18,000 reagents; shown is a random part of them. Of all reagents, about 2,900 (16%) were called active. 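Calls are made per well; low scores hint the gene aids the LPS response, high scores that it dampens it.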 Repeated entries: four replicate wells of each siRNA pool.

Screen: 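Genes whose knock-down alters the TNF-alpha reporter response to LPS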 (primary screen)
Cells: human THP-1 monocytic leukaemia cells, TNF dual-luciferase reporter clone, PMA-differentiated to macrophage-like cells
Reagent: siRNA pool against human genes, 50 nM
Time to read-out: LPS for 4 h, given about 3 days after siRNA transfection
Challenge: bacterial LPS (TLR4 ligand), 10 ng/ml
Measured: 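TNF firefly reporter luminescence divided by renilla, normalised to the plate median, then turned into a robust z-score for each replicate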
Direction: TNF reporter robust z-score: higher = stronger TNF reporter response to LPS
Active means: 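Each well counts as active if its z-score is over 2.8 or under -1.5; controls are left without a call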

The first 5 entries, to show the layout:
{"gene symbol":"SH3GL1 (GeneID 6455)","TNF reporter robust z-score":-0.48,"activity call":"inactive"}
{"gene symbol":"SH3GL1 (GeneID 6455)","TNF reporter robust z-score":-0.93,"activity call":"inactive"}
{"gene symbol":"SH3GL1 (GeneID 6455)","TNF reporter robust z-score":-0.38,"activity call":"inactive"}
{"gene symbol":"SH3GL1 (GeneID 6455)","TNF reporter robust z-score":-0.87,"activity call":"inactive"}
{"gene symbol":"AANAT (GeneID 15)","TNF reporter robust z-score":-1.19,"activity call":"inactive"}

Main list, from the first entry:
{"gene symbol":"SH3GL1 (GeneID 6455)","TNF reporter robust z-score":-0.48,"activity call":"inactive"}
{"gene symbol":"SH3GL1 (GeneID 6455)","TNF reporter robust z-score":-0.93,"activity call":"inactive"}
{"gene symbol":"SH3GL1 (GeneID 6455)","TNF reporter robust z-score":-0.38,"activity call":"inactive"}
{"gene symbol":"SH3GL1 (GeneID 6455)","TNF reporter robust z-score":-0.87,"activity call":"inactive"}
{"gene symbol":"AANAT (GeneID 15)","TNF reporter robust z-score":-1.19,"activity call":"inactive"}
{"gene symbol":"AANAT (GeneID 15)","TNF reporter robust z-score":-1.03,"activity call":"inactive"}
{"gene symbol":"AANAT (GeneID 15)","TNF reporter robust z-score":-0.48,"activity call":"inactive"}
{"gene symbol":"AANAT (GeneID 15)","TNF reporter robust z-score":0.36,"activity call":"inactive"}
{"gene symbol":"CRB3 (GeneID 92359)","TNF reporter robust z-score":-1.21,"activity call":"inactive"}
{"gene symbol":"CRB3 (GeneID 92359)","TNF reporter robust z-score":-0.96,"activity call":"inactive"}
{"gene symbol":"CRB3 (GeneID 92359)","TNF reporter robust z-score":-1.28,"activity call":"inactive"}
{"gene symbol":"N4BP2 (GeneID 55728)","TNF reporter robust z-score":0.53,"activity call":"inactive"}
{"gene symbol":"N4BP2 (GeneID 55728)","TNF reporter robust z-score":0.78,"activity call":"inactive"}
{"gene symbol":"N4BP2 (GeneID 55728)","TNF reporter robust z-score":0.03,"activity call":"inactive"}
{"gene symbol":"N4BP2 (GeneID 55728)","TNF reporter robust z-score":1.95,"activity call":"inactive"}
{"gene symbol":"WWOX (GeneID 51741)","TNF reporter robust z-score":0.52,"activity call":"inactive"}
{"gene symbol":"WWOX (GeneID 51741)","TNF reporter robust z-score":2.05,"activity call":"inactive"}
{"gene symbol":"WWOX (GeneID 51741)","TNF reporter robust z-score":0.51,"activity call":"inactive"}
{"gene symbol":"WWOX (GeneID 51741)","TNF reporter robust z-score":1.18,"activity call":"inactive"}
{"gene symbol":"UBA52 (GeneID 7311)","TNF reporter robust z-score":-0.18,"activity call":"inactive"}
{"gene symbol":"UBA52 (GeneID 7311)","TNF reporter robust z-score":0.24,"activity call":"inactive"}
{"gene symbol":"UBA52 (GeneID 7311)","TNF reporter robust z-score":-0.21,"activity call":"inactive"}
{"gene symbol":"UBA52 (GeneID 7311)","TNF reporter robust z-score":-0.42,"activity call":"inactive"}
{"gene symbol":"EXPH5 (GeneID 23086)","TNF reporter robust z-score":-1.47,"activity call":"inactive"}
{"gene symbol":"EXPH5 (GeneID 23086)","TNF reporter robust z-score":-0.53,"activity call":"inactive"}
{"gene symbol":"EXPH5 (GeneID 23086)","TNF reporter robust z-score":-0.78,"activity call":"inactive"}
{"gene symbol":"EXPH5 (GeneID 23086)","TNF reporter robust z-score":-0.67,"activity call":"inactive"}
{"gene symbol":"CYB5R5 (GeneID 606495)","TNF reporter robust z-score":-0.12,"activity call":"inactive"}
{"gene symbol":"CYB5R5 (GeneID 606495)","TNF reporter robust z-score":1.15,"activity call":"inactive"}
{"gene symbol":"CYB5R5 (GeneID 606495)","TNF reporter robust z-score":0.57,"activity call":"inactive"}
{"gene symbol":"CYB5R5 (GeneID 606495)","TNF reporter robust z-score":0.2,"activity call":"inactive"}
{"gene symbol":"PLCB2 (GeneID 5330)","TNF reporter robust z-score":-0.49,"activity call":"inactive"}
{"gene symbol":"PLCB2 (GeneID 5330)","TNF reporter robust z-score":0.22,"activity call":"inactive"}
{"gene symbol":"PLCB2 (GeneID 5330)","TNF reporter robust z-score":-0.64,"activity call":"inactive"}
{"gene symbol":"PLCB2 (GeneID 5330)","TNF reporter robust z-score":-0.69,"activity call":"inactive"}
{"gene symbol":"HJV (GeneID 148738)","TNF reporter robust z-score":0.21,"activity call":"inactive"}
{"gene symbol":"HJV (GeneID 148738)","TNF reporter robust z-score":0.34,"activity call":"inactive"}
{"gene symbol":"HJV (GeneID 148738)","TNF reporter robust z-score":-0.39,"activity call":"inactive"}
{"gene symbol":"HJV (GeneID 148738)","TNF reporter robust z-score":-0.71,"activity call":"inactive"}
{"gene symbol":"TERF2 (GeneID 7014)","TNF reporter robust z-score":2.63,"activity call":"inactive"}
{"gene symbol":"TERF2 (GeneID 7014)","TNF reporter robust z-score":1.08,"activity call":"inactive"}
{"gene symbol":"TERF2 (GeneID 7014)","TNF reporter robust z-score":1.83,"activity call":"inactive"}
{"gene symbol":"TERF2 (GeneID 7014)","TNF reporter robust z-score":2.22,"activity call":"inactive"}
{"gene symbol":"MTF2 (GeneID 22823)","TNF reporter robust z-score":0.15,"activity call":"inactive"}
{"gene symbol":"MTF2 (GeneID 22823)","TNF reporter robust z-score":-1.21,"activity call":"inactive"}
{"gene symbol":"MTF2 (GeneID 22823)","TNF reporter robust z-score":-1.18,"activity call":"inactive"}
{"gene symbol":"MTF2 (GeneID 22823)","TNF reporter robust z-score":-0.57,"activity call":"inactive"}
